Reference: the supplement of paper PMC8728848
This is one part of the list.

Key:
Test in all cases: glycan array binding signal (z-score within array); higher = stronger binding
Details in all cases: glycan notation: IUPAC condensed, linker removed
Kdn(a2-3)Gal(b1-4)GlcNAc = target: Kdn(a2-3)Gal(b1-4)GlcNAc
How it was run: (§1)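 Glycan array data came from 3228 arrays in the Consortium for Functional Glycomics database, and only arrays with an available protein sequence were kept. Glycan names were put into IUPAC-condensed notation, and columns mapping to the same glycan were averaged. The binding signal is a within-array Z-score, averaged across arrays of one protein sequence run at different concentrations or buffers and across linkers. A negative Z-score can be read as non-binding.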

[1] = target: Kdn(a2-3)Gal(b1-4)[Fuc(a1-3)]GlcNAc
How it was run: as §1

Kdn(a2-6)Gal(b1-4)GlcNAc = target: Kdn(a2-6)Gal(b1-4)GlcNAc
How it was run: as §1

[2] = target: Man(a1-2)Man(a1-2)Man(a1-3)Man
How it was run: as §1

[3] = target: Man(a1-2)Man(a1-2)Man(a1-6)[Man(a1-3)]Man
How it was run: as §1

Man(a1-2)Man(a1-3)Man = target: Man(a1-2)Man(a1-3)Man
How it was run: as §1

[4] = target: Man(a1-2)Man(a1-3)[Man(a1-2)Man(a1-6)]Man
How it was run: as §1

[5] = target: Man(a1-2)Man(a1-3)[Man(a1-2)Man(a1-6)]Man(a1-6)[Man(a1-2)Man(a1-2)Man(a1-3)]Man
How it was run: as §1

[6] = target: Man(a1-2)Man(a1-3)[Man(a1-2)Man(a1-6)]Man(a1-6)[Man(a1-2)Man(a1-2)Man(a1-3)]Man(b1-4)GlcNAc(b1-4)GlcNAc
How it was run: as §1

[7] = target: Man(a1-2)Man(a1-3)[Man(a1-6)]Man(a1-6)[Man(a1-2)Man(a1-3)]Man(b1-4)GlcNAc(b1-4)GlcNAc
How it was run: as §1

[8] = target: Man(a1-2)Man(a1-6)[Man(a1-3)]Man(a1-6)[Man(a1-2)Man(a1-2)Man(a1-3)]Man
How it was run: as §1

[9] = target: Man(a1-2)Man(a1-6)[Man(a1-3)]Man(a1-6)[Man(a1-2)Man(a1-2)Man(a1-3)]Man(b1-4)GlcNAc(b1-4)GlcNAc
How it was run: as §1

Man(a1-3)[Man(a1-6)]Man = target: Man(a1-3)[Man(a1-6)]Man
How it was run: as §1

[10] = target: Man(a1-3)[Man(a1-6)]Man(a1-6)[Man(a1-2)Man(a1-3)]Man(b1-4)GlcNAc(b1-4)GlcNAc
How it was run: as §1

[11] = target: Man(a1-3)[Man(a1-6)]Man(a1-6)[Man(a1-3)]Man
How it was run: as §1

[12] = target: Man(a1-3)[Man(a1-6)]Man(a1-6)[Man(a1-3)]Man(b1-4)GlcNAc(b1-4)GlcNAc
How it was run: as §1

[13] = target: Man(a1-3)[Man(a1-6)]Man(b1-4)GlcNAc(b1-4)GlcNAc
How it was run: as §1

[14] = target: Man(a1-3)[Man(a1-6)]Man(b1-4)GlcNAc(b1-4)[Fuc(a1-6)]GlcNAc
How it was run: as §1

Man(a1-6)Man = target: Man(a1-6)Man
How it was run: as §1

Man(b1-4)GlcNAc = target: Man(b1-4)GlcNAc
How it was run: as §1

MurNAc(b1-4)GlcNAc = target: MurNAc(b1-4)GlcNAc
How it was run: as §1

Neu5Ac(a2-3)Gal = target: Neu5Ac(a2-3)Gal
How it was run: as §1

[15] = target: Neu5Ac(a2-3)Gal(b1-3)GalNAc
How it was run: as §1

[16] = target: Neu5Ac(a2-3)Gal(b1-3)GalNAc(b1-3)Gal(a1-4)Gal(b1-4)Glc
How it was run: as §1

[17] = target: Neu5Ac(a2-3)Gal(b1-3)GalNAc(b1-3)Gal(b1-4)GlcNAc
How it was run: as §1

[18] = target: Neu5Ac(a2-3)Gal(b1-3)GalNAc(b1-4)Gal(b1-4)Glc
How it was run: as §1

[19] = target: Neu5Ac(a2-3)Gal(b1-3)GalNAc(b1-4)[Neu5Ac(a2-3)]Gal(b1-4)Glc
How it was run: as §1

[20] = target: Neu5Ac(a2-3)Gal(b1-3)GalNAc(b1-4)[Neu5Ac(a2-8)Neu5Ac(a2-3)]Gal(b1-4)Glc
How it was run: as §1

[21] = target: Neu5Ac(a2-3)Gal(b1-3)GalNAc6S
How it was run: as §1

[22] = target: Neu5Ac(a2-3)Gal(b1-3)GlcNAc
How it was run: as §1

[23] = target: Neu5Ac(a2-3)Gal(b1-3)GlcNAc(b1-2)Man
How it was run: as §1

[24] = target: Neu5Ac(a2-3)Gal(b1-3)GlcNAc(b1-2)Man(a1-3)[GlcNAc(b1-4)][Neu5Ac(a2-3)Gal(b1-3)GlcNAc(b1-2)Man(a1-6)]Man(b1-4)GlcNAc(b1-4)GlcNAc
How it was run: as §1

[25] = target: Neu5Ac(a2-3)Gal(b1-3)GlcNAc(b1-2)Man(a1-3)[Neu5Ac(a2-3)Gal(b1-3)GlcNAc(b1-2)Man(a1-6)]Man(b1-4)GlcNAc(b1-4)GlcNAc
How it was run: as §1

[26] = target: Neu5Ac(a2-3)Gal(b1-3)GlcNAc(b1-2)[Neu5Ac(a2-3)Gal(b1-3)GlcNAc(b1-4)]Man(a1-6)[Neu5Ac(a2-3)Gal(b1-3)GlcNAc(b1-2)Man(a1-3)]Man(b1-4)GlcNAc(b1-4)GlcNAc
How it was run: as §1

[27] = target: Neu5Ac(a2-3)Gal(b1-3)GlcNAc(b1-3)Gal(b1-3)GlcNAc
How it was run: as §1

[28] = target: Neu5Ac(a2-3)Gal(b1-3)GlcNAc(b1-3)Gal(b1-4)GlcNAc
How it was run: as §1

[29] = target: Neu5Ac(a2-3)Gal(b1-3)GlcNAc(b1-3)GalNAc
How it was run: as §1

[30] = target: Neu5Ac(a2-3)Gal(b1-3)GlcNAc(b1-6)GalNAc
How it was run: as §1

[31] = target: Neu5Ac(a2-3)Gal(b1-3)GlcNAc6S
How it was run: as §1

[32] = target: Neu5Ac(a2-3)Gal(b1-3)[Fuc(a1-4)]GlcNAc
How it was run: as §1

[33] = target: Neu5Ac(a2-3)Gal(b1-3)[Fuc(a1-4)]GlcNAc(b1-3)Gal(b1-3)[Fuc(a1-4)]GlcNAc
How it was run: as §1

[34] = target: Neu5Ac(a2-3)Gal(b1-3)[Fuc(a1-4)]GlcNAc(b1-3)Gal(b1-4)[Fuc(a1-3)]GlcNAc
How it was run: as §1

[35] = target: Neu5Ac(a2-3)Gal(b1-3)[GlcNAc(b1-6)]GalNAc
How it was run: as §1

[36] = target: Neu5Ac(a2-3)Gal(b1-3)[Neu5Ac(a2-3)Gal(b1-4)]GlcNAc
How it was run: as §1

[37] = target: Neu5Ac(a2-3)Gal(b1-3)[Neu5Ac(a2-6)]GalNAc
How it was run: as §1

B1: GST Gap3 (Streptococcus parasanguinis) (protein)
chain: MTKQLISEIYWNEIRKGENYLYGSQIKFQEDLVNFYNPQLASGKPIVTFKSRTNYQGDRHSPDLPILIQGNRYLLEYQIDAVPANSFFLQLDFFNRQAEQIESIVLRNSGESFIFPKDTFTYTLTLMSAGCQSVTYQKFMIYDINDEEKKNHIVENRYLRELLPKDLDLVKNLIEYI
- glycan array binding signal (z-score) (Kdn(a2-3)Gal(b1-4)GlcNAc): -0.034
- glycan array binding signal (z-score) [1]: 0.164
- glycan array binding signal (z-score) (Kdn(a2-6)Gal(b1-4)GlcNAc): -0.471
- glycan array binding signal (z-score) [2]: -0.495
- glycan array binding signal (z-score) [3]: -0.226
- glycan array binding signal (z-score) (Man(a1-2)Man(a1-3)Man): -0.273
- glycan array binding signal (z-score) [4]: -0.379
- glycan array binding signal (z-score) [5]: -0.19
- glycan array binding signal (z-score) [6]: -0.231
- glycan array binding signal (z-score) [7]: -0.304
- glycan array binding signal (z-score) [8]: -0.335
- glycan array binding signal (z-score) [9]: -0.359
- glycan array binding signal (z-score) (Man(a1-3)[Man(a1-6)]Man): -0.311
- glycan array binding signal (z-score) [10]: -0.369
- glycan array binding signal (z-score) [11]: -0.516
- glycan array binding signal (z-score) [12]: -0.294
- glycan array binding signal (z-score) [13]: -0.303
- glycan array binding signal (z-score) [14]: -0.194
- glycan array binding signal (z-score) (Man(a1-6)Man): -0.41
- glycan array binding signal (z-score) (Man(b1-4)GlcNAc): -0.526
- glycan array binding signal (z-score) (MurNAc(b1-4)GlcNAc): -0.582
- glycan array binding signal (z-score) (Neu5Ac(a2-3)Gal): -0.372
- glycan array binding signal (z-score) [15]: -0.228
- glycan array binding signal (z-score) [16]: -0.174
- glycan array binding signal (z-score) [17]: -0.123
- glycan array binding signal (z-score) [18]: 0.335
- glycan array binding signal (z-score) [19]: -0.475
- glycan array binding signal (z-score) [20]: 0.451
- glycan array binding signal (z-score) [21]: -0.474
- glycan array binding signal (z-score) [22]: -0.21
- glycan array binding signal (z-score) [23]: -0.331
- glycan array binding signal (z-score) [24]: 0.249
- glycan array binding signal (z-score) [25]: -0.211
- glycan array binding signal (z-score) [26]: 0.017
- glycan array binding signal (z-score) [27]: -0.309
- glycan array binding signal (z-score) [28]: -0.442
- glycan array binding signal (z-score) [29]: -0.515
- glycan array binding signal (z-score) [30]: -0.69
- glycan array binding signal (z-score) [31]: -0.535
- glycan array binding signal (z-score) [32]: -0.582
- glycan array binding signal (z-score) [33]: -0.044
- glycan array binding signal (z-score) [34]: -0.335
- glycan array binding signal (z-score) [35]: -0.638
- glycan array binding signal (z-score) [36]: -0.254
- glycan array binding signal (z-score) [37]: -0.342
